# PubChem BioAssay AID2685 (National Center for Advancing Translational Sciences (NCATS), 2010)
# The campaign covered roughly 320,000 compounds. About 2,100 (0.66%) were called active. This list was built around the results that the source calls inconclusive (neither active nor inactive); the mix of calls is not that of the screen. Calls come from the whole dose curve; as a rule, active = well fitted inhibition curve with a large enough effect in the signal ratio, with a control signal flat (not every such curve was filed as active); inconclusive = small, poorly fitted or top-dose-only effect, or effect the other way, or a change in a side signal; inactive = flat fitted curve, though single readings scatter; the % refers to the signal ratio. A potency beside an inconclusive call is a rough fit, not a confirmed value.
# Test: qHTS Assay for Lipid Storage Modulators in Drosophila S3 Cells
# Conditions: BODIPY lipid droplet fluorescence, 18-24 h, cells fed with added oleic acid; lipid storage change, negative = inhibition: at 46.1 µM (top of the series) unless noted
# How it was run: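 Drosophila S3 cells got compounds at several concentrations plus oleic acid (400 uM solution). Laser-scanning cytometry with 488 nm excitation read lipid droplets at 500-530 nm and cells at 575-640 nm. Percent activity was relative to 20 uM Triacsin C.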
# % is set by controls: 0 for no effect and ±100 for the full control effect; potency is the fitted concentration of half-maximal effect.
Compound,Potency,"lipid storage change, negative = inhibition"
CCOC(=O)c1nc(Nc2ccc(C(=O)OC)cc2)c2ccccc2n1,"inconclusive: 18.4 µM [falling, single point]",
Cc1c(O)ccc2c(=O)c(-c3nncn3-c3ccccc3)coc12,,inconclusive: -10.7%
O=c1[nH]c(CSc2ccccn2)nc2c1cnn2-c1ccccc1,,inconclusive: 24.2%
O=c1[nH]c(CN2CCc3ccccc32)nc2scc(-c3cccs3)c12,,inconclusive: 15.8%
C=C(C)CSc1nnc(CCNC(=O)OC(C)(C)C)o1,"inconclusive: 5.8 µM [activator, full curve, poor fit]",
Nc1nc(Oc2ccc(F)cc2)c(Br)c(=O)[nH]1,,inconclusive: 0.605%
C=CCn1c(SCCN2C(=O)c3ccccc3C2=O)nc2scc(-c3ccccc3)c2c1=O,,inconclusive: 39.7%
Cc1cc(-c2n[nH]c(=S)n2-c2ccc(F)cc2)nn1C,,inconclusive: -10.7%
O=C(COC(=O)c1ccc(F)cc1)NC1CC1,,inconclusive: -2.06%
COc1ccc2c(c1)nc1n2CN(CC2CCCO2)CN1Cc1ccccc1 (stereo not given),,inconclusive: 25.6%
CCOC(=O)c1nnc(-c2ccccc2)nc1Oc1ccccc1Cl,,inconclusive: -18.4%
CC(=O)N1CCOc2ccc(S(=O)(=O)NCC3CCC(C(=O)Nc4ncccc4C)CC3)cc21 (stereo not given),,inconclusive: 143%
Cc1cc(C)cc(OCC(=O)Nc2ccccc2C(=O)N2CCOCC2)c1,"inconclusive: 29.1 µM [falling, single point]",
COc1cc(/C=C(/C#N)c2nc3ccccc3[nH]2)ccc1OCc1ccc(C(=O)O)o1,,inconclusive: 37.1%
Cc1nc(SCCc2ccccc2)[nH]c(=O)c1C,,inconclusive: 110%
COc1ccc(C(=O)Nc2ccc(S(=O)(=O)Nc3cc(C)nc(C)n3)cc2)c(OC)c1,,inconclusive: 21.9%
CCCCNCCCOc1cccc(Cl)c1,,inconclusive: 6.44%
CCCn1c(SCC(=O)NNC(=O)c2ccc(OC)cc2)nnc1C(C)C,"inconclusive: 0.259 µM [activator, full curve, poor fit]",
CC(Cc1cccs1)NC(=S)Nc1ccc(Cl)cc1 (stereo not given),,inconclusive: -6.09%
O=C(Cn1nc(Cl)nc1Cl)c1cc2ccccc2oc1=O,"inconclusive: 18.4 µM [activator, partial curve]",
O=C(c1ccccc1)N1CCCC(c2nc3c(nnn3Cc3ccccc3)c(=O)[nH]2)C1 (stereo not given),,inconclusive: 13.6%
Cc1ccc(S(=O)(=O)N(C)c2ccc(C(=O)NCCc3ccccc3)cc2)cc1,,inconclusive: -100%
CCOC(=O)CCCNC(=O)CSc1nnc(-c2ccccc2)c(-c2ccccc2)n1,,inconclusive: -100%
COc1cc(OC)c(NC(=O)C2CCN(S(=O)(=O)c3ccc4c(c3)CC(C)N4C(C)=O)CC2)cc1Cl (stereo not given),,inconclusive: 67.1%
CCOc1ccc(Oc2c(/C=N/NC(N)=O)c(C)nn2-c2ccccc2)cc1,"inconclusive: 6.51 µM [activator, partial curve, poor fit]",
CCOC(=O)C(=CNc1ccccc1C)C(=O)OCC,"inconclusive: 6.51 µM [rising, single point]",
CCCCCCSc1ccc([C@@H]2[C@H]3C(=O)N(CC)C(=O)[C@H]3[C@]3(C(=O)OC)CCCN23)cc1,active: 0.517 µM,

Compound,Potency,"lipid storage change, negative = inhibition"
O=C(CCN1C(=O)/C(=C\c2cccs2)SC1=S)Nc1ccc(C(=O)O)cc1,,inconclusive: 44.2%
COc1ccc(O)c(C(=O)c2cnc3onc(C(C)C)c3c2)c1,,inconclusive: 14.1%
O=C(NC1CCCc2ccccc21)c1ccc(S(=O)(=O)N2CCOCC2)cc1 (stereo not given),"inconclusive: 0.116 µM [cytotoxic, full curve]",
CN(C)CCCNc1ccc(-c2cc(Nc3cccc(Cl)c3)ncn2)cn1,,inactive: 8.12%
COc1ccc(N2Cc3cccc(C(=O)N4CCOCC4)c3C2=O)cc1,,inconclusive: -7.37%
CC(C)c1cc(C(=O)Nc2cccc(Cl)c2)no1,,inconclusive: -19.6%
CCOC(=O)c1[nH]c(C)c(C(=O)Nc2cc(OC)ccc2OC)c1C,"inconclusive: 18.4 µM [rising, single point]",
CCC(C)NS(=O)(=O)c1ccc(OCC(=O)NCc2ccco2)cc1 (stereo not given),,inconclusive: 17.1%
COC(=O)c1ccc(N/C=C/C(=O)c2ccccc2)cc1,"inconclusive: 4.11 µM [activator, single point]",
O=[N+]([O-])c1cc(/C=N/O)ccc1SCc1ccccc1,"inconclusive: 29.1 µM [activator, partial curve, poor fit]",
COC(=O)c1cc(=O)n(CCc2ccc(OC)c(OC)c2)c(=Nc2ccc(F)c(Cl)c2)s1,,inconclusive: -26.2%
CCN(CC(=O)Nc1ccc(N2CCOCC2)cc1)C(=O)c1ccc(C(F)(F)F)cc1,"inconclusive: 0.82 µM [falling, full curve]",
O=C(NCCc1ccc(Cl)cc1)c1ccc2nc(N3CCOCC3)sc2c1,,inconclusive: -38.9%
COc1ccc(Cl)cc1NC(=O)CN1CCC(n2nnc3cc(C)ccc32)CC1,,inconclusive: 31.9%
Cc1cccc(-c2nc(-c3ccncc3)no2)c1,"inconclusive: 1.3 µM [activator, full curve]",
COC(=O)Nc1ccc(S(=O)(=O)N2CCCC(C(=O)N3CCN(C)CC3)C2)cc1 (stereo not given),,inconclusive: 22.1%
CC(C)OC(=O)CC(=O)CSc1nc2c(cc1C#N)CCC2,,inconclusive: 10.6%
COC(=O)NC1c2ccccc2Oc2ccc(C)cc21 (stereo not given),,inconclusive: 33.3%
O=C(NCCN1CCCC1=O)Nc1ccccc1,,inconclusive: -92.2%
CCNC(=S)NCCN1CCCCC1,,inconclusive: -1.38%
O=C(N/N=C/c1ccc(OCC(=O)N2CCCCC2)cc1)c1ccccc1,,inconclusive: 37.4%
CC(=O)Nc1ccc(S(=O)(=O)N/N=C/c2cccnc2)cc1,,inconclusive: -33% [at 0.00295 µM]
CNc1nc(N/N=C/c2ccc([N+](=O)[O-])cc2)nc(Nc2ccccc2)n1,,inconclusive: -13.9%
CCOC(=O)c1c(NC(=S)NC(=O)c2ccco2)sc2c1CCCC2,,inconclusive: 32.2%
Cc1ccnc(NS(=O)(=O)c2cc(C(F)(F)F)ccc2Cl)c1,,inconclusive: 13.6%
CN(C1CCCCC1)S(=O)(=O)CCNC(=O)c1ccccc1,,inconclusive: 11%
CC(=O)N1CCc2cc(S(=O)(=O)NC(Cc3ccccc3)C(=O)Nc3cc(C)ccn3)ccc21 (stereo not given),,inconclusive: 42.7%

Compound,Potency,"lipid storage change, negative = inhibition"
CCOC(=O)C(N)CSC1CC(=O)N(c2ccc(OC)cc2)C1=O (stereo not given),active: 3.26 µM,
COc1ccc(C2=NS(=O)(=O)N(C)C(C(=O)NC3CCCC3)=C2)cc1,,inconclusive: -30.6%
CCCCC(CC)C(=O)Nc1cc(C(=O)NCc2ccc(C)cc2)ccc1N1CCC2(CC1)CC(c1cccc(Br)c1)=NO2 (stereo not given),"inconclusive: 2.06 µM [activator, partial curve]",
Cc1cccc(N2CCC(N3CCN(C4CCCCC4)C(CCO)C3)CC2)c1C (stereo not given),,inconclusive: -41.5%
CC(=O)c1cc2ccccc2oc1=O,,inconclusive: 0.331%
CN(C)Cc1cnc2ccc(Cl)cn12,,inconclusive: 14%
COc1ccccc1C(=O)N/C(=C/c1ccc(Br)cc1)C(=O)N1CCCC1,,inconclusive: 11.2%
O=C(O)C1CC(=O)N(Cc2ccccc2)C1 (stereo not given),,inconclusive: -40.6%
CC(=O)c1ccc(NC(=O)CCCC(=O)c2ccccc2)cc1,,inconclusive: 13.7%
COC(=O)C(Cc1c[nH]c2ccccc12)NC(=O)c1cc(-c2ccc(OC)c(OC)c2)oc1C (stereo not given),"inconclusive: 29.1 µM [falling, single point]",
Cc1nn(C2CCS(=O)(=O)C2)c(Cl)c1/C=C/C(=O)OCC(N)=O (stereo not given),,inconclusive: 7.24%
CCc1ccnc(NC(=O)NS(=O)(=O)c2ccc(C)cc2)c1,,inconclusive: 10.8%
CCn1c(COc2ccccc2OC)nnc1SCC(=O)NC1CCCC1,"inconclusive: 0.13 µM [falling, full curve, poor fit]",
CCCCC1CCC(C(=O)Nc2ccccc2)CC1 (stereo not given),,inconclusive: 13.9%
Cc1cccc(NS(=O)(=O)c2nnc(NC(=O)C3CCCCC3)s2)c1,,inconclusive: -29.5%
COc1cccc(C2=NN(C(=O)c3ccc(C)o3)C(O)(C(F)(F)F)C2)c1 (stereo not given),,inconclusive: -22.8%
COc1ccc(-n2cnnc2SCC(=O)N(C)C2CCS(=O)(=O)C2)cc1 (stereo not given),,inconclusive: 17.9%
O=S(=O)(NC(=NC1CCCC1)C(F)(F)F)c1ccccc1,"inconclusive: 0.731 µM [activator, full curve]",
Cc1ccc(S(=O)(=O)N2CCCCC2)cc1NC(=O)C1CCCO1 (stereo not given),,inconclusive: -43.4%
COc1ccccc1NC(=S)NNC(=O)c1ccccc1Br,,inconclusive: 20.7%
CCC(C(=O)NCc1ccco1)n1nc(C)c2c(C)n(-c3ccccc3)nc2c1=O (stereo not given),,inconclusive: 3.39%
CC1CCN(C(=O)c2ccc(S(=O)(=O)N3CCOCC3)cc2)CC1,"inconclusive: 1.84 µM [falling, partial curve]",
Cc1c(C(=O)N2CCc3ccccc3C2)oc2ccccc12,,inconclusive: -7.45%
O=C(CCCc1ccccc1)N=C1SC2CS(=O)(=O)CC2N1c1ccccc1 (stereo not given),,inconclusive: 42%
Cc1ccc(NC(=O)Nc2cccnc2)cc1Cl,,inconclusive: 4.24%
O=C(CCCN1C(=O)/C(=C\c2cccc(Br)c2)SC1=S)Nc1cccnc1,,inconclusive: -6.99%

# Part of the list above, with tabs:
Compound	Potency	lipid storage change, negative = inhibition
CCOC(=O)C(N)CSC1CC(=O)N(c2ccc(OC)cc2)C1=O (stereo not given)	active: 3.26 µM	
COc1ccc(C2=NS(=O)(=O)N(C)C(C(=O)NC3CCCC3)=C2)cc1		inconclusive: -30.6%
CCCCC(CC)C(=O)Nc1cc(C(=O)NCc2ccc(C)cc2)ccc1N1CCC2(CC1)CC(c1cccc(Br)c1)=NO2 (stereo not given)	inconclusive: 2.06 µM [activator, partial curve]	
Cc1cccc(N2CCC(N3CCN(C4CCCCC4)C(CCO)C3)CC2)c1C (stereo not given)		inconclusive: -41.5%
CC(=O)c1cc2ccccc2oc1=O		inconclusive: 0.331%
CN(C)Cc1cnc2ccc(Cl)cn12		inconclusive: 14%
COc1ccccc1C(=O)N/C(=C/c1ccc(Br)cc1)C(=O)N1CCCC1		inconclusive: 11.2%
CC(=O)c1ccc(NC(=O)CCCC(=O)c2ccccc2)cc1		inconclusive: 13.7%
COC(=O)C(Cc1c[nH]c2ccccc12)NC(=O)c1cc(-c2ccc(OC)c(OC)c2)oc1C (stereo not given)	inconclusive: 29.1 µM [falling, single point]	
Cc1nn(C2CCS(=O)(=O)C2)c(Cl)c1/C=C/C(=O)OCC(N)=O (stereo not given)		inconclusive: 7.24%
CCn1c(COc2ccccc2OC)nnc1SCC(=O)NC1CCCC1	inconclusive: 0.13 µM [falling, full curve, poor fit]	
CCCCC1CCC(C(=O)Nc2ccccc2)CC1 (stereo not given)		inconclusive: 13.9%
Cc1cccc(NS(=O)(=O)c2nnc(NC(=O)C3CCCCC3)s2)c1		inconclusive: -29.5%
COc1ccc(-n2cnnc2SCC(=O)N(C)C2CCS(=O)(=O)C2)cc1 (stereo not given)		inconclusive: 17.9%
O=S(=O)(NC(=NC1CCCC1)C(F)(F)F)c1ccccc1	inconclusive: 0.731 µM [activator, full curve]	
Cc1ccc(S(=O)(=O)N2CCCCC2)cc1NC(=O)C1CCCO1 (stereo not given)		inconclusive: -43.4%
CCC(C(=O)NCc1ccco1)n1nc(C)c2c(C)n(-c3ccccc3)nc2c1=O (stereo not given)		inconclusive: 3.39%
CC1CCN(C(=O)c2ccc(S(=O)(=O)N3CCOCC3)cc2)CC1	inconclusive: 1.84 µM [falling, partial curve]	
O=C(CCCc1ccccc1)N=C1SC2CS(=O)(=O)CC2N1c1ccccc1 (stereo not given)		inconclusive: 42%
Cc1ccc(NC(=O)Nc2cccnc2)cc1Cl		inconclusive: 4.24%
